Measurements published in publication PMC8232266, “Lanolin-Based Synthetic Membranes for Transdermal Permeation and Penetration Drug Delivery Assays” (Membranes, 2021).

Settings: SKIN; Ord 0 model; DS 3% / LIDO 2% in PG, infinite dose

Question: For `CCN(CC)CC(=O)Nc1c(C)cccc1C` [Lidocaine, lidocaine], which “J (flux)” value is on record?
Answer: Its value is 2.29 µg/cm^2/h.
